Out of some 360,000 compounds screened, about 7,500 (2.1%) were called active. The inconclusive results got no clear call from the source; some entries with a clear call stand among them for comparison. Calls come from the whole dose curve; as a rule, active = well fitted inhibition curve with a large enough effect; inconclusive = small, poorly fitted or top-dose-only effect, or effect the other way; inactive = flat fitted curve, though single readings scatter. Where the call is inconclusive, the potency comes from a doubtful curve fit.
Test: Nrf2 qHTS screen for inhibitors; note: nearly all actives have a fitted effect of over 60% in size
Details: A549 ARE-Fluc reporter, luciferase luminescence, 18-24 h; series mostly up to 46 µM
How it was run: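 Reporter: ARE-Fluc in A549. Exposure: 18-24 h, 37 °C, 5% CO2, 5% FBS OPTI-MEM. Readouts: fluorescent cytotoxicity (CellTiter-Fluor), then luminescent Nrf2 signal after BugLite.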
For CCN(CC)CCN1C(=O)c2ccccc2NC1c1cccc(F)c1 (stereo not drawn), the Potency was inconclusive: 6.51 µM [falling, single point]. With O=C(Nc1ccc(Cl)cc1)N(Cc1nc2ccccc2c(=O)[nH]1)Cc1cccs1 the Potency was inconclusive: 23.1 µM [falling, single point]. In the case of CCC(CC)COC(=O)C(C#N)c1nc2ccccc2nc1N1CCOCC1 (stereo not drawn), the Potency was inconclusive: 29.1 µM [falling, single point]. With CCOC(=O)c1c(-c2ccccc2Cl)cn2ccccc12 the Potency was “inactive”. With CC(C)c1ccc(NC(=O)C2(C)Cc3ccccc3C(=O)O2)cc1 (stereo not drawn) the Potency was inconclusive: 20.6 µM [activator, partial curve, poor fit]. With O=S(=O)(Nc1cccnc1Cl)c1ccc(-c2ccccc2)cc1 the Potency was inconclusive: 8.2 µM [falling, partial curve, poor fit]. For CS(=O)(=O)N1CCC(C(=O)Nc2cc(Cl)ccc2Cl)CC1, the Potency was inconclusive: 2.06 µM [falling, partial curve, poor fit]. For O=C(NC[C@@H]1CC[C@@H](Cc2ccc(-c3ccccc3)cc2)O1)Nc1ccc(Br)cc1, the Potency was inconclusive: 29.1 µM [falling, single point]. For S=C(NCc1ccccc1)NCc1ccc(CNC(=S)NCc2ccccc2)cc1, the Potency was “inactive”. With O=C1CN(C(=O)c2ccccc2F)C(c2ccccc2)c2cc(F)ccc2N1 (stereo not drawn) the Potency was “inactive”. For O=C(NCCc1ccccn1)c1cc(-c2ccc(Cl)c(Cl)c2Cl)nc2ccccc12, the Potency was inconclusive: 29.1 µM [falling, single point]. In the case of CNc1ccc(Br)cc(C(=O)/C=C/c2cc(OC)ccc2OC)c1=O, the Potency was inconclusive: 20.6 µM [falling, single point]. With CCS(=O)(=O)N1Cc2ccccc2CC1C(=O)Nc1cccc(OC)c1 (stereo not drawn) the Potency was inconclusive: 23.1 µM [activator, single point]. With CCN(CC)C(=O)/C(=C/c1cn(S(=O)(=O)N(C)C)c2ccccc12)NC(=O)c1ccc(OC)cc1 the Potency was inconclusive: 20.6 µM [falling, single point]. In the case of CCOC(=O)CNC(=O)C12CC3CC(CC(C3)C1)C2, the Potency was “inactive”. In the case of Cc1cccc(C)c1NC(=O)c1oc2c(c1C)-c1nn(Cc3ccccc3)cc1CC2, the Potency was “inactive”. With COc1ccc2nc(-c3ccc(N(C)C)cc3)sc2c1 the Potency was active: 0.326 µM. In the case of CCc1ccccc1NC(=O)c1ccc(OCc2c(C)noc2C)cc1, the Potency was “inactive”. In the case of CN1C(=O)Cc2cc(S(=O)(=O)CCC(=O)Nc3ccccc3)ccc21, the Potency was inconclusive: 18.4 µM [activator, partial curve]. With CCc1c(C)nc2cc(-c3cccs3)[nH]n2c1=O the Potency was inconclusive: 16.4 µM [activator, partial curve]. With O=C(Cc1cccc2ccccc12)Nc1ccc(N2CCOCC2)cc1 the Potency was inconclusive: 18.4 µM [falling, single point]. In the case of COc1cc(OC)c(N(C)C(=O)c2nn(C)c3c2CSc2ccccc2-3)cc1Cl, the Potency was “inactive”. With C=C(C)C1CCC2(C(=O)O)CCC3(C)C(CCC4C5(C)C(C=O)C(O)C(C)(C)C5CCC43C)C12 (stereo not drawn) the Potency was inconclusive: 29.1 µM [falling, single point]. In the case of Cc1ccc(-c2csc(N)n2)s1, the Potency was inconclusive: 5.17 µM [activator, partial curve]. With CC(=O)c1sc(NC(=O)c2ccc(C)c(C)c2)nc1C the Potency was inconclusive: 13 µM [activator, partial curve]. In the case of COC(=O)c1sccc1NC(=S)Nc1ccc(C)cc1, the Potency was inconclusive: 16.4 µM [activator, partial curve, poor fit]. With O=S(=O)(c1ccc2[nH]c3c(c2c1)CCCCC3)N1CCN(c2ccccc2)CC1 the Potency was inconclusive: 16.4 µM [falling, single point]. In the case of COc1cccc(CNC(=O)c2cc(-c3cccc(OC)c3)n[nH]2)c1, the Potency was inconclusive: 14.6 µM [activator, single point]. In the case of COc1ccc(NC(=O)N/C=C/c2ccccc2)cc1, the Potency was inconclusive: 23.1 µM [activator, partial curve]. In the case of COc1ccc(NC(=O)N2CCN(C(=O)C(Cc3ccc(F)cc3)NC(C)=O)CC2)cc1 (stereo not drawn), the Potency was “inactive”. With O=C(NC(=S)N1CCCCC1c1cccnc1)c1ccc(Br)cc1 (stereo not drawn) the Potency was inconclusive: 1.84 µM [falling, partial curve]. For CCCCC(=O)Nc1ccc(NC(=O)c2ccccc2OC)cn1, the Potency was inconclusive: 23.1 µM [falling, partial curve]. For S=C(Nc1cccc(Br)c1)N1CCn2cccc2C1c1cccnc1 (stereo not drawn), the Potency was inconclusive: 18.4 µM [falling, single point]. With O=C(CCCOC(=O)c1ccc(O)cc1O)c1ccc(F)cc1 the Potency was “inactive”. With CCOc1nc(-c2ccccc2)ccc1-c1noc(-c2ccncc2)n1 the Potency was inconclusive: 0.0651 µM [falling, full curve, poor fit]. For CC(=O)Nc1c(Cl)cc2c(c1Cl)Cc1ccccc1-2, the Potency was inconclusive: 25.9 µM [activator, partial curve, poor fit]. For CCCc1nc2sc3c(SCC(=O)NCc4ccco4)ncnc3c2c2c1CCC2, the Potency was inconclusive: 25.9 µM [falling, single point]. In the case of COc1ccccc1OCCNS(=O)(=O)c1ccc2oc3ccccc3c2c1, the Potency was inconclusive: 20.6 µM [falling, single point]. For Cc1c(Cc2ccc3c(c2)OCO3)sc(NC(=O)C2CC2)c1C(N)=O, the Potency was inconclusive: 20.6 µM [activator, single point]. For O=C(N/N=C/c1c(O)ccc2ccccc12)c1ccc(CO)nc1, the Potency was inconclusive: 18.4 µM [falling, single point]. With O=C(Oc1c(CN2CCOCC2)cc(Cl)c2cccnc12)c1ccccc1 the Potency was inconclusive: 14.6 µM [falling, single point]. In the case of COCCCNC(=O)CCC(=O)N1Cc2ccccc2Oc2ncccc21, the Potency was inconclusive: 23.1 µM [activator, partial curve]. With CC[C@@]12C(=O)N(c3ccccc3)C(=O)N1[C@H](c1ccc(Br)cc1)[C@@H]1C(=O)N(C(C)(C)C)C(=O)[C@@H]12 the Potency was inconclusive: 29.1 µM [falling, single point].

Source: PubChem BioAssay AID504444 (National Center for Advancing Translational Sciences (NCATS), 2011)
Potency is the fitted concentration of half-maximal effect.
